Results published in publication PMC10163288.
This is one part of the list.

B1: il10ra_site1_normal_mot_HHH_b1_06994_000000193_0001_40_55_H_._HHH_b2_00363_0001_0000200029_0000001_0 (protein)
chain: SSSSDLEELVRAALRLAKQALEAGDPRAARRLLEALAQALEQEGDEELLREVEELLEEVGSSSSS
B2: il10ra_site1_normal_mot_HHH_b1_05052_000000015_0001_1_19_H_._HHH_b1_05170_af2_0001_0000100002_0000002_1 (protein)
chain: SSSSSSDEAFRIIEEAIKLYADGNPEEAERLLEELLEQLREEGDEAMARIVEAILRLLSSSSSSS
B3: il10ra_site1_sap_17_mot_HHH_b1_00682_000000235_0001_1_20_H_._HHH_b2_02429_af2_0001_0000600019_0000002_0_0001_af2pred_0001 (protein)
chain: SSSSDEEVIELIRRISRALFRGDQEQAEELLEEAEELVKELGDEELRRALEIAEEAVRALSSSSS
B4: il10ra_site1_normal_mot_HHH_b1_02397_af2_000000085_0001_39_57_H_._HHH_b2_00311_0001_0000300020_0000002_0 (protein)
chain: SSSSSSDLEELLEELEQLLEEGDHERFAEVALRILRHAFRKNDPEVLRAVWELVKRLASSSSSSS
B5: il10ra_site1_sap_18_mot_HHH_b1_07768_000000240_0001_18_35_H_._HHH_b1_02264_0001_0000100004_0000001_0_0001 (protein)
chain: SSSSSERAIRFHLDMARQAFRLNNREALKAATYAARALVELHKDPELERLLEEIEELLEELSSSS
B6: il10ra_site1_normal_mot_HHH_b2_02337_000000026_0001_38_52_H_._HHH_b2_06191_0001_0000100004_0000002_0 (protein)
chain: SSSSSEEELEELVRELEELVERNDIERFIRLAQEAVQLAMELGDQEVLQRLWELVRLIIGSSSSS
B7: il10ra_site1_sap_13_mot_HHH_b2_06076_000000146_0001_21_37_H_._HHH_b2_03555_af2_0001_0000100003_0000001_0_0001 (protein)
chain: SSSSSERRERIWKLIKEVLELLANGNPEEAEKVLEEAEELAEEANDRLLLIQIEFLARAVKSSSS
B8: il10ra_site1_normal_mot_HHH_b2_02386_000000054_0001_1_20_H_._HHH_b2_05043_0001_0000400073_0000003_0 (protein)
chain: SSSSTDESYELLREAIEEVIRLYKEGNPEEAEKVVEEVARRLEELGNPLAARQLENLLRLLSSSS
B9: il10ra_site1_normal_mot_HHH_b2_07145_000000158_0001_24_40_H_._HHH_b1_07887_0001_0000300041_0000001_0 (protein)
chain: SSSSTEELFEKVKELIKEAQELFENGNPEEARELLRELREELEELGNQALLWSVEHLLRLLSSSS
B10: il10ra_site1_sap_24_mot_ems_p1-16H-GBL-16H-GABBL-16H_0429_0001_0001_0001_000000085_0001_1_17_H_._HHH_b2_03668_0001_0000200022_0000001_0_0001 (protein)
chain: SSSSSEEVEELLKELEEALEEGDEELFAELYAQVARLAQRLNDRELIEKIQKLAIEFLRRKSSSS
B11: il10ra_site1_normal_mot_HHH_b2_02386_000000054_0001_1_20_H_._HHH_b2_05043_0001_0000100001_0000003_0 (protein)
chain: SSSSTDESYELARRAIEEVIRLYKEGNPEEAEEVVREVFRELKELGNPLAARQLENLRRILSSSS
B12: il10ra_site1_sap_21_mot_HHH_b2_02736_000000092_0001_22_38_H_._HHH_b1_04523_af2_0001_0000300039_0000001_0_0001 (protein)
chain: SSSSSEEKEEELEELERLIEEGDRERFMKLVERALRLAYQNGDKELLQKIWELVKEFGERLSSSS
B13: il10ra_site1_sap_12_mot_HHH_b1_05757_000000171_0001_42_57_H_._ead7110553fcc56fee53bdb6698f5c61_0001_af2_0001_0000200005_0000002_0_0001 (protein)
chain: SSSSSDEELEEEIRELLRELEQITDPKEFIEVALRALELIYRLQDPELLHELWRIIKENSSSSSS
B14: il10ra_site1_normal_mot_513c16ae44941e68898e0f7c259e5a28_0001_1_000000056_0001_35_50_H_._ems_p1-15H-GBL-16H-GABBL-16H_0398_0001_0001_0002_0001_0000400018_000000 … (protein)
chain: SSSSSDVEELVELVEELAEERGDEQALQLAEAIEQLFRQGVLSEEAARIALEALAELLEGSSSSS
B15: il10ra_site1_normal_mot_HHH_b2_02022_000000155_0001_19_35_H_._HHH_b2_06257_0001_0000300026_0000001_0 (protein)
chain: SSSSSDTEELLRRLEEEVEELIEEGDQQKAIELLYEISRLAEEKDDEEAREVALRLSRLLSSSSS
B16: il10ra_site1_normal_mot_HHH_b1_07527_000000076_0001_1_15_H_._HHH_b1_08385_0001_0000300038_0000001_0 (protein)
chain: SSSSNEEADEVYKLIREIMELLREGDHERAEELLERAKEIAEEAGSPLLLIILRLLERELKSSSS
B17: il10ra_site1_normal_mot_HHH_b1_05185_000000011_0001_22_39_H_._HHH_b1_06411_0001_0000300023_0000002_0 (protein)
chain: SSSSDVERYIKLAIRFAEALAEAGNPEAARRLIRIAIQIARREGNPELVRELEELLEQLEGSSSS
B18: il10ra_site1_normal_mot_HHH_b2_07006_000000108_0001_1_19_H_._HHH_b2_06449_0001_0000300027_0000001_0 (protein)
chain: SSSSTDEIYELLRELIEAIQDGDEERAEHLVEEIRRLIEEAGSPVMEHLLRFLEELLERRGSSSS
B19: il10ra_site1_sap_20_mot_HHH_b2_02337_000000026_0001_38_52_H_._HHH_b2_02238_af2_0001_0000100004_0000001_0_0001 (protein)
chain: SSSSSEHQELYELIRELIELVAEGDREEFEELYEEVEKLAEELNSWVARMILKYLREQVESSSSS
B20: il10ra_site1_normal_mot_HHH_b1_01827_000000263_0001_1_19_H_._HHH_b2_03023_0001_0000500031_0000001_0_af2pred_0001 (protein)
chain: SSSSTDENEEVIKLLREAAHIEDEEEARRVLEEAFEVAEEGGNELARLAVEFLLRILEEQSSSSS
B21: il10ra_site1_normal_mot_7f9b3cf633cfd27bca007b62ade1be3b_0001_1_000000138_0001_17_32_H_._HHH_b1_05277_0001_0000200014_0000001_1 (protein)
chain: SSSSSSSTERALRFLIFALERAETEEQRRAALRFLEHLAKYLNDEEAEEVVEEFKERHSSSSSSS
B22: il10ra_site1_normal_mot_HHH_b2_03220_af2_000000223_0001_23_40_H_._HHH_b1_00340_af2_0001_0000100002_0000001_0 (protein)
chain: SSSSDETTERAWELIREALELLANGDKEEAEEVLREAEELAEEGNSFAFERAIRLVLRDASSSSS
B23: il10ra_site1_normal_mot_HHH_b1_05357_000000034_0001_23_39_H_._HHH_b2_05979_0002_0000600053_0000001_0 (protein)
chain: SSSSSEFEELREEIERALEENDEELVKELLLELAAVAARLRDPELTHEVIQLYARVHEYFSSSSS
B24: il10ra_site1_normal_mot_HHH_b2_00033_000000036_0001_41_54_H_._HHH_b2_06760_af2_0001_0000200011_0000001_0 (protein)
chain: SSSSDEEKEELERLIEELRELLENGDPERAAKVAMRALQLAFRLRDPELFQELWEVFKRHFSSSS
B25: il10ra_site1_sap_18_mot_HHH_b2_06497_000000202_0001_1_20_H_._HHH_b1_07903_0001_0000400029_0000001_0_0001 (protein)
chain: SSSSDEEDEELLRLVLEAFRLALRGNEEEARRVLEEAEELAEKLNNEKVLKMVRDLLKALSSSSS
B26: il10ra_site1_normal_mot_HHH_b2_08144_af2_000000046_0001_38_52_H_._HHH_b1_00453_af2_0001_0000100003_0000001_0 (protein)
chain: SSSSSELVREAYEALRRLAELAHEGDEEEFQELYEEARRLAEEANNPLLAFQVEFLFRRFTSSSS
B27: il10ra_site1_normal_mot_HHH_b2_02053_af2_000000006_0001_3_19_H_._HHH_b1_07461_0001_0000100009_0000001_0_af2pred_0001 (protein)
chain: SSSSSASEEVRKLLREALELLDKGNPEEAEELVEEAVRIAEENNNPVLLFVAEFLLKDIRGSSSS
B28: il10ra_site1_normal_mot_9368472692dc9678e81f248f6367350b_0001_000000260_0001_20_35_H_._HHH_b1_06755_0001_0000100002_0000002_0 (protein)
chain: SSSSDEEEHRLLELSQHALRAALRGDEEEARRLLEEAIELAEELGNERALRVLEELLKAHSSSSS
B29: il10ra_site1_normal_mot_HHH_b1_05357_000000034_0001_23_39_H_._HHH_b2_02016_0001_0000400030_0000001_0_af2pred_0001 (protein)
chain: SSSSDTEEEVRELLERAEEAAKRGDREETAFLLLRAFSLAAEARNEELKREIEKVAQELSSSSSS
B30: il10ra_site1_sap_20_mot_HHH_b1_05056_000000217_0001_1_20_H_._HHH_b2_06181_0001_0000600016_0000002_0_0001_af2pred_0001 (protein)
chain: SSSSDEEEYEEKVEELLEEAKHIPDPRERAYVLTRAFALATQVNDPELEELVRRVAQELISSSSS
B31: il10ra_site1_normal_mot_HHH_b2_05323_000000159_0001_1_18_H_._HHH_b1_04617_af2_0001_0000100018_0000002_0 (protein)
chain: SSSSDNEEALRLSQRAFRAALRGNPEEARELLEEARELAEQAGNERLVRAIESLLKSLELGSSSS
B32: il10ra_site1_sap_26_mot_HHH_b2_04001_000000102_0001_19_36_H_._HHH_b2_00096_0001_0000100005_0000001_0_0001 (protein)
chain: SSSSDEEERIIEQALELAEERGDRETFLQLRVALELARLSNNPRVLESLAKYAEEVLEELNSSSS
B33: il10ra_site1_normal_mot_HHH_b2_00033_000000036_0001_41_54_H_._HHH_b1_08598_0001_0000300016_0000002_0 (protein)
chain: SSSSSSSDFQELALRALRLLIKRNDKELFQELWRLVKEIAEHGDPELREELEEFLEEISSSSSSS
B34: il10ra_site1_sap_13_mot_HHH_b1_05357_000000034_0001_23_39_H_._HHH_b2_00121_0002_0000200034_0000001_0_0001 (protein)
chain: SSSSDEEELARILHEAMKAYRELVENGNHEEAEELARLLLELVRRGDPRIAEEIEELLEKLSSSS
B35: il10ra_site1_normal_mot_HHH_b2_07440_af2_000000021_0001_1_18_H_._HHH_b1_03012_af2_0001_0000200005_0000003_0 (protein)
chain: SSSSDEELEKALRLSLEAFRLALRGNEEEAEEVLEKAEELLEKLGDPRLLRVVRDLLRALSSSSS
B36: il10ra_site1_normal_mot_HHH_b2_04680_000000215_0001_1_16_H_._HHH_b2_01633_af2_0001_0000300026_0000001_0 (protein)
chain: SSSSDIRLIREAYELLRKAFEALQQGNEEEARELLEQAEKLAEEGGNHALLFAIRQLLRQISSSS
B37: il10ra_site1_normal_mot_1780dbfa062735e19749cb993a6c019b_0001_1_af2_000000050_0001_34_50_H_._HHH_b2_07550_af2_0001_0000100001_0000001_0 (protein)
chain: SSSSSREELAELLRRIAHVFAEGDNEELEELLEEAIEIAQELNNEQAVKALELILKDLREISSSS

Target: il10ra, Q13651
Assay: yeast display titration

Apparent Kd, inactive:
B1 no binding seen
B2 no binding seen
B3 no binding seen
B4 no binding seen
B5 no binding seen
B6 no binding seen
B7 no binding seen
B8 no binding seen
B9 > 106 nM
B10 no binding seen
B11 no binding seen
B12 no binding seen
B13 no binding seen
B14 no binding seen
B15 no binding seen
B16 no binding seen
B17 no binding seen
B18 no binding seen
B19 no binding seen
B20 no binding seen
B21 no binding seen
B22 no binding seen
B23 no binding seen
B24 no binding seen
B25 no binding seen
B26 no binding seen
B27 no binding seen
B28 no binding seen
B29 no binding seen
B30 no binding seen
B31 no binding seen
B32 no binding seen
B33 no binding seen
B34 no binding seen
B35 no binding seen
B36 no binding seen
B37 no binding seen

Quoted at random: three records from the list.
Apparent Kd, inactive:
B30 no binding seen
B1 no binding seen
B9 > 106 nM
